Data: the supplement of paper PMC10849652
This is one part of the list.

Protein sequences, listed by entry. Tags and fused reporters are not part of them. Lines headed by an entry give the natural chain unless they say otherwise; changes in a name come on top.
UniProt O00488: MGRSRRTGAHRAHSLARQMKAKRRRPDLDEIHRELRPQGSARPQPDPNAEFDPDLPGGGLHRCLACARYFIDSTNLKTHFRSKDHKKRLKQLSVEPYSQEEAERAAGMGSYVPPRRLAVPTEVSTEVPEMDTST

Each compound was assayed against ZNF593 (UniProt O00488) (assay: log2 fold change, soluble protein after heating vs DMSO (PISA); higher = thermal stabilisation; K562 cells, 10 uM, 30 min; active = over 0.2 and 3.5 SD of the protein, either way, in both replicates (recomputed)).
How it was run: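 Soluble protein was defined as the supernatant after 21,000xg for 90 min. It came from K562 cells at 2×10^6 cells/mL given 10 μM compound for 30 min, heated in aliquots for 3 min across 48°C-58°C, pooled, and extracted in PBS with 0.5% NP-40 at 4°C, and was quantified by TMTpro 16plex LC-MS/MS with equalised channel sums. Thermal stability against control samples, from duplicates, is reported as log2 fold change.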

log2 fold change, inactive:
CCCc1cc(C)[nH]c(=O)c1CNC(=O)c1cc(-c2ccnc(N3CCN(C)CC3)c2)cc2c1cnn2C(C)C 0.06
Cc1cccc(-c2[nH]c(C(C)(C)C)nc2-c2ccc3nccnc3c2)n1 -0.117
COc1cc2ncnc(Nc3ccc(F)c(Cl)c3)c2cc1OCCCN1CCOCC1 [gefitinib] -0.073
Cc1cc(Nc2cc(CN3CCOCC3)c3nc(C)c(Cc4ccc(Cl)cc4F)n3n2)n[nH]1 [gandotinib] 0.202
NC1(c2ccc(-c3nc4ccn5c(=O)[nH]nc5c4cc3-c3ccccc3)cc2)CCC1 0.254
O=C1NC(=O)/C(=C\c2ccc3nccnc3c2)S1 -0.023
CCN(CCCOc1ccc2c(Nc3cc(CC(=O)Nc4cccc(F)c4)[nH]n3)ncnc2c1)CCOP(=O)(O)O [barasertib] -0.122
Cc1ncc(-c2ccnc(Nc3ccc(S(C)(=O)=O)cc3)n2)n1C(C)C -0.115
Cc1cccc(CC(=O)N2CCc3c2ccc(-c2cn(C)c4ncnc(N)c24)c3F)n1 -0.055
COc1cccc2cc(-c3nc([C@H]4CC[C@H](C(=O)O)CC4)n4ncnc(N)c34)[nH]c12 0.008
Cc1ccc(NC(=O)c2ccc(CN3CC[C@H](N(C)C)C3)c(C(F)(F)F)c2)cc1Nc1nccc(-c2cncnc2)n1 [bafetinib] 0.142
CCn1cc(-c2ccnc3[nH]c(-c4cccc(CN(C)C)c4)cc23)c(-c2ccc(NC(=O)N(C)C)cc2)n1 0.153
CC(C)N(C[C@H]1O[C@@H](n2cnc3c(N)ncnc32)[C@H](O)[C@@H]1O)[C@H]1C[C@@H](CCc2nc3cc(C(C)(C)C)ccc3[nH]2)C1 [pinometostat] 0.293
CN1CCC(CNc2ccc3ncc(-c4cccc(OC(F)(F)F)c4)n3n2)CC1 0.201
C[C@@H](N)c1ccc(C(=O)Nc2ccnc3[nH]ccc23)cc1 0.339
CC[C@H](C)n1cc(C)c2c(C(=O)NCc3c(C)cc(C)[nH]c3=O)cc(-c3ccc(N4CCNCC4)nc3)cc21 -0.003
COc1ccc(Cn2ccc3ccc(C(=O)NO)cc32)cc1 -0.186
CS(=O)(=O)N1CCN(Cc2cc3nc(-c4cccc5[nH]ncc45)nc(N4CCOCC4)c3s2)CC1 [pictilisib] -0.14
COc1cc(Nc2ncc3c(n2)-c2ccc(Cl)cc2C(c2c(F)cccc2OC)=NC3)ccc1C(=O)O [alisertib] -0.064
Cn1cc(-c2ccc3c(c2)CCN3C(=O)Cc2cccc(C(F)(F)F)c2)c2c(N)ncnc21 -0.288
O=C(CCCCCCC(=O)Nc1ccccc1)NO [vorinostat] 0.033
C[C@@H](Oc1cc(-c2cnn(C3CCNCC3)c2)cnc1N)c1c(Cl)ccc(F)c1Cl [crizotinib] 0.067
Cc1ccc(-n2nc(C(C)(C)C)cc2NC(=O)Nc2ccc(OCCN3CCOCC3)c3ccccc23)cc1 [doramapimod] 0.193
Cc1cn(-c2cc(NC(=O)c3ccc(C)c(Nc4nccc(-c5cccnc5)n4)c3)cc(C(F)(F)F)c2)cn1 [nilotinib] -0.073
O=C(O)c1ccc2c(c1)nc(Nc1cccc(Cl)c1)c1ccncc12 [silmitasertib] 0.041
C=CC(=O)N1CCC[C@@H](n2nc(-c3ccc(Oc4ccccc4)cc3)c3c(N)ncnc32)C1 [ibrutinib] 0.061
O=C(Nc1nc2ccccc2n1CCN1CCOCC1)c1cccc([N+](=O)[O-])c1 [IRAK-1-4 Inhibitor I] -0.151
Cc1nc(Nc2n[nH]c3c2CN(C(=O)N[C@H](CN(C)C)c2ccccc2)C3(C)C)c2sccc2n1 0.082
CO[C@H]1C[C@@H]2CC[C@@H](C)[C@@](O)(O2)C(=O)C(=O)N2CCCC[C@H]2C(=O)O[C@H]([C@H](C)C[C@@H]2CC[C@H](n3cnnn3)[C@H](OC)C2)CC(=O)[C@H](C)/C=C(\C)[C@@H](O)[C@@H](OC)C(=O)[C@H](C)C[C@H](C)/C=C/C=C/C=C/1C [zotarolimus] 0.111
FC(F)(F)c1ccc(/C=C/c2nc(COc3ccc(CCCCn4ccnn4)cc3)co2)cc1 [mubritinib] -0.133

A portion from the list above, for reference:
log2 fold change, inactive:
Cc1cccc(CC(=O)N2CCc3c2ccc(-c2cn(C)c4ncnc(N)c24)c3F)n1 -0.055
COc1cccc2cc(-c3nc([C@H]4CC[C@H](C(=O)O)CC4)n4ncnc(N)c34)[nH]c12 0.008
Cc1ccc(NC(=O)c2ccc(CN3CC[C@H](N(C)C)C3)c(C(F)(F)F)c2)cc1Nc1nccc(-c2cncnc2)n1 [bafetinib] 0.142
CCn1cc(-c2ccnc3[nH]c(-c4cccc(CN(C)C)c4)cc23)c(-c2ccc(NC(=O)N(C)C)cc2)n1 0.153
CC(C)N(C[C@H]1O[C@@H](n2cnc3c(N)ncnc32)[C@H](O)[C@@H]1O)[C@H]1C[C@@H](CCc2nc3cc(C(C)(C)C)ccc3[nH]2)C1 [pinometostat] 0.293
CN1CCC(CNc2ccc3ncc(-c4cccc(OC(F)(F)F)c4)n3n2)CC1 0.201
